In patent publication US12612429 (dated 2026):

experiment: general procedure: solution-phase peptide synthesis; HATU/DIEA; conditions: coupling step, TFA salt

With “(2S,3S)-3-azido-2-((S)-2-(dimethylamino)-3-methylbutanamido)-N-((3R,4S,5S)-3-methoxy-1-((S)-2-((1R,2R)-1-methoxy-2-methyl-3-oxo-3-(((S)-2-phenyl-1-(thiazol-2-yl)ethyl)amino)propyl)pyrrolidin-1-yl)-5-methyl-1-oxoheptan-4-yl)-N-methylbutanamide” as the substance, how does the step yield read?
Its step yield is 18%.

Which step yield does the source give for “Dov-Dpr(Fmoc)-Dil-Dap-2-(2-pyridyl)ethylamine” here?
Its step yield is 20%.

For Dov-Thr(Bzl)-Dil-Dap-Phe-OMe, which step yield is on record?
The step yield was 63%.

With “Dov-Ser(Bzl)-Dil-Dap-2-(2-pyridyl)ethylamine” as the substance, how does the step yield read?
The step yield was 68%.

For “Dov-Thr(Bzl)-Dil-Dap-2-(2-pyridyl)ethylamine”, which step yield is on record?
Its step yield is 63%.

With Dov-Ser(Bzl)-Dil-Dap-Phe-OMe as the substance, how does the step yield read?
Its step yield is 54%.

same assay, conditions: coupling step, TFA salt or formic acid salt

With “Dov-Dab(Fmoc)-Dil-Dap-(1R,2S)-(−)-Norephedrine” as the substance, how does the step yield read?
Its step yield is 81%.

Which step yield does the source give for “methyl ((2R,3R)-3-((S)-1-((3R,4S,5S)-4-((S)-3-azido-N-methyl-2-((S)-3-methyl-2-(methylamino)butanamido)propanamido)-3-methoxy-5-methylheptanoyl)pyrrolidin-2-yl)-3-methoxy-2-methylpropanoyl)-L-phenylalaninate” here?
The step yield was 1%.

With “methyl ((2R,3R)-3-((S)-1-((3R,4S,5S)-4-((S)-2-((S)-2-(dimethylamino)-3-methylbutanamido)-N,3-dimethylbutanamido)-3-methoxy-5-methylheptanoyl)pyrrolidin-2-yl)-3-methoxy-2-methylpropanoyl)-L-serinate” as the substance, how does the step yield read?
Its step yield is 74%.

Which step yield does the source give for “Dov-Dab(Fmoc)-Dil-Dap-2-(2-chlorophenyl)ethylamine” here?
Its step yield is 26%.

Which step yield does the source give for Dov-Dpr(Fmoc)-Dil-Dap-Phe-OMe here?
The step yield was 56%.

For “(2S,3S)-3-azido-2-((S)-2-(dimethylamino)-3-methylbutanamido)-N-((3R,4S,5S)-3-methoxy-1-((S)-2-((1R,2R)-1-methoxy-2-methyl-3-oxo-3-((2-(pyridin-2-yl)ethyl)amino)propyl)pyrrolidin-1-yl)-5-methyl-1-oxoheptan-4-yl)-N-methylbutanamide”, which step yield is on record?
The step yield was 29%.

For “Dov-Dab(Fmoc)-Dil-Dap-2-(4-chlorophenyl)ethylamine”, which step yield is on record?
Its step yield is 61%.

With “methyl ((2R,3R)-3-((S)-1-((3R,4S,5S)-4-((2S,3S)-3-azido-2-((S)-2-(dimethylamino)-3-methylbutanamido)-N-methylbutanamido)-3-methoxy-5-methylheptanoyl)pyrrolidin-2-yl)-3-methoxy-2-methylpropanoyl)-L-valinate” as the substance, how does the step yield read?
The step yield was 55%.

same assay, conditions: coupling step, formic acid salt

For “tert-butyl ((2R,3R)-3-((S)-1-((3R,4S,5S)-4-((2S,3S)-3-azido-2-((S)-2-(dimethylamino)-3-methylbutanamido)-N-methylbutanamido)-3-methoxy-5-methylheptanoyl)pyrrolidin-2-yl)-3-methoxy-2-methylpropanoyl)-L-phenylalaninate”, which step yield is on record?
Its step yield is 72%.

For “tert-butyl ((2R,3R)-3-((S)-1-((3R,4S,5S)-4-((2S,3S)-3-azido-N-methyl-2-((S)-3-methyl-2-(methylamino)butanamido)butanamido)-3-methoxy-5-methylheptanoyl)pyrrolidin-2-yl)-3-methoxy-2-methylpropanoyl)-L-phenylalaninate”, which step yield is on record?
The step yield was 5%.

same assay, conditions: late stage modification step, TFA salt

With “(S)-methyl 2-((2R,3R)-3-((S)-1-((3R,4S,5S)-4-((2S,3R)-2-((S)-2-(dimethylamino)-3-methylbutanamido)-3-hydroxy-N-methylbutanamido)-3-methoxy-5-methylheptanoyl)pyrrolidin-2-yl)-3-methoxy-2-methylpropanamido)-3-phenylpropanoate” as the substance, how does the step yield read?
Its step yield is 43%.

Which step yield does the source give for “(S)-2-((S)-2-(aminooxy)-3-methylbutanamido)-N-((3R,4S,5S)-3-methoxy-1-((S)-2-((1R,2R)-1-methoxy-2-methyl-3-oxo-3-((2-(pyridin-2-yl)ethyl)amino)propyl)pyrrolidin-1-yl)-5-methyl-1-oxoheptan-4-yl)-N,3-dimethylbutanamide” here?
The step yield was 43%.

Which step yield does the source give for “(2S,3S)-3-azido-N-((3R,4S,5S)-3-methoxy-1-((S)-2-((1R,2R)-1-methoxy-2-methyl-3-oxo-3-(((S)-2-phenyl-1-(1H-tetrazol-5-yl)ethyl)amino)propyl)pyrrolidin-1-yl)-5-methyl-1-oxoheptan-4-yl)-N-methyl-2-((S)-3-methyl-2-(methylamino)butanamido)butanamide” here?
The step yield was 5%.

Which step yield does the source give for Fmoc-MeVal-Abu(3-N3)-Dil-Dap-Phe-OH here?
Its step yield is 77%.

With “(S)-2-(dimethylamino)-N—((S)-3-hydroxy-1-(((3R,4S,5S)-3-methoxy-1-((S)-2-((1R,2R)-1-methoxy-2-methyl-3-oxo-3-((2-(pyridin-2-yl)ethyl)amino)propyl)pyrrolidin-1-yl)-5-methyl-1-oxoheptan-4-yl)(methyl)amino)-1-oxopropan-2-yl)-3-methylbutanamide” as the substance, how does the step yield read?
Its step yield is 5%.

Which step yield does the source give for “(2S,3R)-2-((S)-2-(dimethylamino)-3-methylbutanamido)-3-hydroxy-N-((3R,4S,5S)-3-methoxy-1-((S)-2-((1R,2R)-1-methoxy-2-methyl-3-oxo-3-((2-(pyridin-2-yl)ethyl)amino)propyl)pyrrolidin-1-yl)-5-methyl-1-oxoheptan-4-yl)-N-methylbutanamide” here?
The step yield was 3%.

same assay, conditions: late stage modification step, TFA salt or formic acid salt

For “(S)—N-((3R,4S,5S)-1-((S)-2-((1R,2R)-3-(((S)-1-amino-1-oxo-3-phenylpropan-2-yl)amino)-1-methoxy-2-methyl-3-oxopropyl)pyrrolidin-1-yl)-3-methoxy-5-methyl-1-oxoheptan-4-yl)-2-((2S,3R)-2-(dimethylamino)-3-hydroxybutanamido)-N,3-dimethylbutanamide”, which step yield is on record?
Its step yield is 70%.

Which step yield does the source give for “methyl ((2R,3R)-3-((S)-1-((3R,4S,5S)-4-((S)-6-amino-2-((S)-2-(dimethylamino)-3-methylbutanamido)-N-methylhexanamido)-3-methoxy-5-methylheptanoyl)pyrrolidin-2-yl)-3-methoxy-2-methylpropanoyl)-L-phenylalaninate” here?
Its step yield is 51%.

With “(S)-methyl 2-((2R,3R)-3-((S)-1-((3R,4S,5S)-4-((S)-2-((S)-2-(dimethylamino)-3-hydroxypropanamido)-N,3-dimethylbutanamido)-3-methoxy-5-methylheptanoyl)pyrrolidin-2-yl)-3-methoxy-2-methylpropanamido)-3-phenylpropanoate” as the substance, how does the step yield read?
Its step yield is 18%.

For “methyl ((2R,3R)-3-((S)-1-((3R,4S,5S)-4-((2S,3S)-3-azido-N-methyl-2-((S)-3-methyl-2-(methylamino)butanamido)butanamido)-3-methoxy-5-methylheptanoyl)pyrrolidin-2-yl)-3-methoxy-2-methylpropanoyl)-L-phenylalaninate”, which step yield is on record?
Its step yield is 103%.

With “(S)-4-amino-N-((3R,4S,5S)-1-((S)-2-((1R,2R)-3-((2-chlorophenethyl)amino)-1-methoxy-2-methyl-3-oxopropyl)pyrrolidin-1-yl)-3-methoxy-5-methyl-1-oxoheptan-4-yl)-2-((S)-2-(dimethylamino)-3-methylbutanamido)-N-methylbutanamide” as the substance, how does the step yield read?
The step yield was 34%.

With “(S)-methyl 2-((2R,3R)-3-((S)-1-((3R,4S,5S)-4-((R)-2-((S)-2-(dimethylamino)-3-methylbutanamido)-3-mercapto-N-methylpropanamido)-3-methoxy-5-methylheptanoyl)pyrrolidin-2-yl)-3-methoxy-2-methylpropanamido)-3-phenylpropanoate” as the substance, how does the step yield read?
The step yield was 3%.

Which step yield does the source give for “(S)-4-amino-2-((S)-2-(dimethylamino)-3-methylbutanamido)-N-((3R,4S,5S)-1-((S)-2-((1R,2R)-3-(((1S,2R)-1-hydroxy-1-phenylpropan-2-yl)amino)-1-methoxy-2-methyl-3-oxopropyl)pyrrolidin-1-yl)-3-methoxy-5-methyl-1-oxoheptan-4-yl)-N-methylbutanamide” here?
Its step yield is 14%.

With Dov-Abu(3-N3)-Dil-Dap-Phe-NHt-Bu as the substance, how does the step yield read?
Its step yield is 59%.

Which step yield does the source give for “(S)-2-((2R,3R)-3-((S)-1-((3R,4S,5S)-4-((2S,3S)-3-azido-2-((S)-2-(dimethylamino)-3-methylbutanamido)-N-methylbutanamido)-3-methoxy-5-methylheptanoyl)pyrrolidin-2-yl)-3-methoxy-2-methylpropanamido)-3-phenylpropanoic acid” here?
Its step yield is 93%.

With “(S)—N-((3R,4S,5S)-1-((S)-2-((1R,2R)-3-(((S)-1-amino-1-oxo-3-phenylpropan-2-yl)amino)-1-methoxy-2-methyl-3-oxopropyl)pyrrolidin-1-yl)-3-methoxy-5-methyl-1-oxoheptan-4-yl)-2-((S)-2-(dimethylamino)-3-hydroxypropanamido)-N,3-dimethylbutanamide” as the substance, how does the step yield read?
The step yield was 83%.

same assay, conditions: late stage modification step, formic acid salt

Which step yield does the source give for “(S)-methyl 2-((2R,3R)-3-((S)-1-((3R,4S,5S)-4-((S)-4-amino-2-((S)-2-(dimethylamino)-3-methylbutanamido)-N-methylbutanamido)-3-methoxy-5-methylheptanoyl)pyrrolidin-2-yl)-3-methoxy-2-methylpropanamido)-3-phenylpropanoate” here?
The step yield was 13%.

Which step yield does the source give for “(2S,3S)-3-amino-N-((3R,4S,5S)-1-((S)-2-((1R,2R)-3-((2-chlorophenethyl)amino)-1-methoxy-2-methyl-3-oxopropyl)pyrrolidin-1-yl)-3-methoxy-5-methyl-1-oxoheptan-4-yl)-2-((S)-2-(dimethylamino)-3-methylbutanamido)-N-methylbutanamide” here?
Its step yield is 30%.
